In publication PMC8516970:
No constants are given. Whether binding was seen depends on the method and setting. In cells and extracts the contact can be indirect. Some results given as binding are weak or reduced against the parent protein; the word gives no strength.

Amino acid sequences for entries named in this document (tags omitted).
UniProt Q9UBL6: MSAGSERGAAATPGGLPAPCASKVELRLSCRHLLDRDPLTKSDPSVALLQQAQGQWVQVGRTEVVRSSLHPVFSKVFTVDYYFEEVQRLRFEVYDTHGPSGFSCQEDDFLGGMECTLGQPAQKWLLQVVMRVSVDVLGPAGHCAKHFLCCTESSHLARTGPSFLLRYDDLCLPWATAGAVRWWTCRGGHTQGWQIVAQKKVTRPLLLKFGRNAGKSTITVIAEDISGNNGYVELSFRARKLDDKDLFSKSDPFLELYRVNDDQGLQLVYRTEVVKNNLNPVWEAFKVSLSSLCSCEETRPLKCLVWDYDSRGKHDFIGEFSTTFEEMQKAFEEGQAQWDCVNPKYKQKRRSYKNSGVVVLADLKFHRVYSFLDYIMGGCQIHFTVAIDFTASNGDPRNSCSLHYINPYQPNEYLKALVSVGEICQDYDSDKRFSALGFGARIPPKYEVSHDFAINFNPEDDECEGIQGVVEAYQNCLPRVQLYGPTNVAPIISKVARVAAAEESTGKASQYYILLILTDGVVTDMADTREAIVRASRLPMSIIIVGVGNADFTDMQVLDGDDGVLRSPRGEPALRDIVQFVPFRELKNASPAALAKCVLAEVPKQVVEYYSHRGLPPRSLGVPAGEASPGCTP
UniProt P19338: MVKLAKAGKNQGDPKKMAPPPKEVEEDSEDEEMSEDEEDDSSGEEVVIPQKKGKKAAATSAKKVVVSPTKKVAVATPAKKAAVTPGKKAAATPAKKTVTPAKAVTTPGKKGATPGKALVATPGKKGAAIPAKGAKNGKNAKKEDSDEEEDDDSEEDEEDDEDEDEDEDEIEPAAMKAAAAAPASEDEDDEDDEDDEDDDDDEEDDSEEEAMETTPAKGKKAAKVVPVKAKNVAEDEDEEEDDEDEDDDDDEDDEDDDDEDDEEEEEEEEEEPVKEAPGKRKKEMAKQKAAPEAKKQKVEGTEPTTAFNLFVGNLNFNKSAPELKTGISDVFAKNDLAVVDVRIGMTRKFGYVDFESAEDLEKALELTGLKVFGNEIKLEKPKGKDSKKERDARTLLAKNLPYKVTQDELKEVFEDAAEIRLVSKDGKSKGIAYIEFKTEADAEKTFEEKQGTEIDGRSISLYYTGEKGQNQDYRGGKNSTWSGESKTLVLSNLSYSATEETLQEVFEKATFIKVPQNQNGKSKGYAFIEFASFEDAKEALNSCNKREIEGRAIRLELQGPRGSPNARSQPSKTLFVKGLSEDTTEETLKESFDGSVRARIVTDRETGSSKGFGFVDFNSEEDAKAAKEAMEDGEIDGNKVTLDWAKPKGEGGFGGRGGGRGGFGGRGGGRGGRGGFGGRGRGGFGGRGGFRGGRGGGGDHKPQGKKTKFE
UniProt P25963: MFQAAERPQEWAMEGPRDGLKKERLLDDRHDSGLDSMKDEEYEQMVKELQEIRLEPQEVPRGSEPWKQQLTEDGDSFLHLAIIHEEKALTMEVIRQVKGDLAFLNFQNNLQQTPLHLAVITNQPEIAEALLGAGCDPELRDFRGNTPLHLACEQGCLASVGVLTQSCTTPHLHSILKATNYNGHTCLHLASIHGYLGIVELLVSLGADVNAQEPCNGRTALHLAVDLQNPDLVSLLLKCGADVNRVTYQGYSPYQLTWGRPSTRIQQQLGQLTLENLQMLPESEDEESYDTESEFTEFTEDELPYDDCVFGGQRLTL

Experiments:
[1] = target: CPNE7 fused with GFP protein (lentivirus-CPNE7-GFP) (UniProt Q9UBL6); assay: co-IP; lysates of lv-CPNE7 transfected OLK-MSCs in NP-40 buffer; incubated at 4 °C overnight with GFP, total-IκBα, Nucleolin antibodies or normal IgG; Protein A/G PLUS agarose beads 1 h at 4 °C; western blot with GFP, CPNE7, total-IκBα, Nucleolin
[2] = target: Nucleolin (human (endogenous in OLK-MSCs)) (UniProt P19338); assay: as above

With IκBα (from UniProt P25963 1-317) the binding [1] was “binds” and the binding [2] was “binds”.
